Measured values as given in the supplement of paper PMC8256030.
Values joined by “and” are separate entries in the source; they are usually repeats but may differ in a detail not shown here. Equal values may be shown once. The list shows a part of the results. Repeats in this data set agree poorly, so a single value says little.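 HEK293T cells were given each compound shortly before transfection with a reporter in which red mCherry is followed by the SARS-CoV-2 frameshift element and then GFP in the −1 frame, so GFP appears only after frameshifting.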

Each compound was assayed on HEK293T (assay: percent viability (nuclei count) relative to control; higher = more viable cells). Conditions: 10 µM; 24 h.

CC(=O)OC/C=C(C)/C=C/C=C(C)/C=C/C1=C(C)CCCC1(C)C was tested. Which percent viability did it give?
Its percent viability is 308%.

CC(C)(Oc1ccc(Cl)cc1)C(=O)OCCNC(=O)c1cccnc1 [picafibrate] was tested. Which percent viability did it give?
Its percent viability is 116%.

Which percent viability does the source give for NC[C@H]1CC[C@H](C(=O)O)CC1 here?
Its percent viability is 386%.

CC(=O)[C@H]1CC[C@H]2[C@@H]3C[C@H](C)C4=CC(=O)CC[C@]4(C)[C@H]3[C@@H](O)C[C@]12C [medrysone] was tested. Which percent viability did it give?
The percent viability was 273% and 310%.

Which percent viability does the source give for N=C(N)c1ccc(OCCCOc2ccc(C(=N)N)cc2Br)c(Br)c1 [dibrompropamidine] here?
The percent viability was 172%.

With CCCNCC(O)COc1ccccc1C(=O)CCc1ccccc1 (stereo not given) [propafenone] as the compound, how does the percent viability read?
Its percent viability is 447% and 297%.

How did the percent viability turn out when C[C@H]1CN(C[C@H](Cc2ccccc2)C(=O)NCC(=O)O)CC[C@@]1(C)c1cccc(O)c1 [Entereg] was run?
The percent viability was 205%.

With C[C@]12CC[C@H]3C(=CCc4cc(O)ccc43)[C@@H]1CCC2=O as the compound, how does the percent viability read?
The percent viability was 99.4%.

With O=[N+]([O-])c1ccc(O)c2ncccc12 [nitroxoline] as the compound, how does the percent viability read?
Its percent viability is 253%.

CN1CCc2nc(C(=O)N[C@@H]3C[C@@H](C(=O)N(C)C)CC[C@@H]3NC(=O)C(=O)Nc3ccc(Cl)cn3)sc2C1 [Edoxaban] was tested. Which percent viability did it give?
The percent viability was 87.9%.

NC(=O)CC[C@H](N)C(=O)O [glutamine] was tested. Which percent viability did it give?
The percent viability was 168%.

How did the percent viability turn out when CN1CCCCC1CCN1c2ccccc2Sc2ccc(S(C)(=O)=O)cc21 (stereo not given) [sulforidazine] was run?
Its percent viability is 296%.

Which percent viability does the source give for COC(=O)Nc1nc2cc([S+]([O-])c3ccccc3)ccc2[nH]1 (stereo not given) [oxfendazole] here?
Its percent viability is 64.6%.

With CCc1c(C)[nH]c2c1C(=O)C(CN1CCOCC1)CC2 (stereo not given) [molindone] as the compound, how does the percent viability read?
Its percent viability is 249%.

With Cn1c(CNc2ccc(C(=N)N)cc2)nc2cc(C(=O)N(CCC(=O)O)c3ccccn3)ccc21 [dabigatran] as the compound, how does the percent viability read?
Its percent viability is 247%.

Which percent viability does the source give for C[C@H](CCC(=O)NCCS(=O)(=O)O)[C@H]1CC[C@H]2[C@@H]3[C@H](O)C[C@@H]4C[C@H](O)CC[C@]4(C)[C@H]3C[C@H](O)[C@]12C [Taurocholic acid] here?
The percent viability was 208%.

CN(C)NC(=O)c1ccc(Cl)c(S(N)(=O)=O)c1 [alipamide] was tested. Which percent viability did it give?
The percent viability was 83.3%.

With CCC1(c2ccccc2)C(=O)NCNC1=O [primidone] as the compound, how does the percent viability read?
Its percent viability is 180%.

CC1=C(/C=C/C(C)=C/C=C/C(C)=C/C(=O)Nc2ccc(O)cc2)C(C)(C)CCC1 [fenretinide] was tested. Which percent viability did it give?
The percent viability was 5.07%.

How did the percent viability turn out when CC(C)(C)NC(=O)[C@@H]1CN(Cc2cccnc2)CCN1C[C@@H](O)C[C@@H](Cc1ccccc1)C(=O)N[C@H]1c2ccccc2C[C@H]1O [indinavir] was run?
The percent viability was 235%.

Which percent viability does the source give for NS(=O)(=O)c1ccc(N2CCCCS2(=O)=O)cc1 [sultiame] here?
Its percent viability is 48%.

For CC(C)=CCOc1ccc(/C=C/C(=O)c2ccc(OCC=C(C)C)cc2OCC(=O)O)cc1 [sofalcone], which percent viability is on record?
Its percent viability is 266%.

With Oc1ncnc2[nH]ncc12 [Allopurinol] as the compound, how does the percent viability read?
The percent viability was 162%.

CCCCc1nc(Cl)c(CO)n1Cc1ccc(-c2ccccc2-c2nnn[nH]2)cc1 [losartan] was tested. Which percent viability did it give?
Its percent viability is 211%.

CO/N=C1\C[C@]2(C[C@@H]3C[C@@H](C/C=C(\C)C[C@@H](C)/C=C/C=C4\CO[C@@H]5[C@H](O)C(C)=C[C@@H](C(=O)O3)[C@]45O)O2)O[C@H](/C(C)=C/C(C)C)[C@H]1C [moxidectin] was tested. Which percent viability did it give?
Its percent viability is 42.3%.

How did the percent viability turn out when COc1cc(C(=O)NCCCCCC(=O)O)cc(OC)c1OC [capobenic acid] was run?
Its percent viability is 270%.

With CCCCCCCCCCCCCCCC(=O)OC[C@@H](NC(=O)C(Cl)Cl)[C@H](O)c1ccc([N+](=O)[O-])cc1 as the compound, how does the percent viability read?
Its percent viability is 150%.

How did the percent viability turn out when CC(C)NCC(O)COc1cccc2ccccc12 (stereo not given) was run?
Its percent viability is 314%.

With CC(=O)CC/C=C(\C)CC/C=C(\C)CC/C=C(\C)CCC=C(C)C [teprenone] as the compound, how does the percent viability read?
The percent viability was 223%.

For Oc1c(Cl)cc(Cl)c(Cl)c1Cc1c(O)c(Cl)cc(Cl)c1Cl [hexachlorophene], which percent viability is on record?
The percent viability was 73.9%.

How did the percent viability turn out when O=C(O)c1cc(=O)c2c(OCC(O)COc3cccc4oc(C(=O)O)cc(=O)c34)cccc2o1 [cromoglicic acid] was run?
Its percent viability is 242%.

N=C(N)NC(=O)c1nc(Cl)c(N)nc1N was tested. Which percent viability did it give?
Its percent viability is 343%.

How did the percent viability turn out when CNCC[C@H](Oc1cccc2ccccc12)c1cccs1 was run?
Its percent viability is 396%.

For C[C@@H](c1nc(-c2ccc(C#N)cc2)cs1)[C@](O)(Cn1cncn1)c1ccc(F)cc1F [ravuconazole], which percent viability is on record?
Its percent viability is 92.9%.

COc1cc2c3cc1Oc1cc(ccc1O)C[C@@H]1c4c(cc(OC)c(O)c4Oc4ccc(cc4)C[C@@H]3N(C)CC2)CC[N+]1(C)C was tested. Which percent viability did it give?
The percent viability was 179%.

For CCC[C@@H]1C[C@@H](C(=O)N[C@@H]([C@H]2O[C@H](SC)[C@H](O)[C@@H](O)[C@H]2O)[C@H](C)Cl)N(C)C1 [Clindamycin], which percent viability is on record?
Its percent viability is 123%.

With Cc1nccc2[nH]c(=O)ccc12 [medorinone] as the compound, how does the percent viability read?
Its percent viability is 50.3%.

For Cn1c(NCCN(CCO)CCCc2ccc([N+](=O)[O-])cc2)cc(=O)n(C)c1=O [nifekalant], which percent viability is on record?
Its percent viability is 113%.

Which percent viability does the source give for COc1ccc2nc(NC(=O)Nc3ccccc3)sc2c1 [frentizole] here?
The percent viability was 103%.

C[C@@H]1C[C@H]2[C@@H]3C[C@H](F)C4=CC(=O)C=C[C@]4(C)[C@H]3[C@@H](O)C[C@]2(C)[C@@]1(O)C(=O)CO [Paramethasone] was tested. Which percent viability did it give?
Its percent viability is 201%.
